# From PMC8579449
# Sequences of proteins named here, by UniProt entry; tags and fusion partners are left off.
# UniProt Q96KQ7: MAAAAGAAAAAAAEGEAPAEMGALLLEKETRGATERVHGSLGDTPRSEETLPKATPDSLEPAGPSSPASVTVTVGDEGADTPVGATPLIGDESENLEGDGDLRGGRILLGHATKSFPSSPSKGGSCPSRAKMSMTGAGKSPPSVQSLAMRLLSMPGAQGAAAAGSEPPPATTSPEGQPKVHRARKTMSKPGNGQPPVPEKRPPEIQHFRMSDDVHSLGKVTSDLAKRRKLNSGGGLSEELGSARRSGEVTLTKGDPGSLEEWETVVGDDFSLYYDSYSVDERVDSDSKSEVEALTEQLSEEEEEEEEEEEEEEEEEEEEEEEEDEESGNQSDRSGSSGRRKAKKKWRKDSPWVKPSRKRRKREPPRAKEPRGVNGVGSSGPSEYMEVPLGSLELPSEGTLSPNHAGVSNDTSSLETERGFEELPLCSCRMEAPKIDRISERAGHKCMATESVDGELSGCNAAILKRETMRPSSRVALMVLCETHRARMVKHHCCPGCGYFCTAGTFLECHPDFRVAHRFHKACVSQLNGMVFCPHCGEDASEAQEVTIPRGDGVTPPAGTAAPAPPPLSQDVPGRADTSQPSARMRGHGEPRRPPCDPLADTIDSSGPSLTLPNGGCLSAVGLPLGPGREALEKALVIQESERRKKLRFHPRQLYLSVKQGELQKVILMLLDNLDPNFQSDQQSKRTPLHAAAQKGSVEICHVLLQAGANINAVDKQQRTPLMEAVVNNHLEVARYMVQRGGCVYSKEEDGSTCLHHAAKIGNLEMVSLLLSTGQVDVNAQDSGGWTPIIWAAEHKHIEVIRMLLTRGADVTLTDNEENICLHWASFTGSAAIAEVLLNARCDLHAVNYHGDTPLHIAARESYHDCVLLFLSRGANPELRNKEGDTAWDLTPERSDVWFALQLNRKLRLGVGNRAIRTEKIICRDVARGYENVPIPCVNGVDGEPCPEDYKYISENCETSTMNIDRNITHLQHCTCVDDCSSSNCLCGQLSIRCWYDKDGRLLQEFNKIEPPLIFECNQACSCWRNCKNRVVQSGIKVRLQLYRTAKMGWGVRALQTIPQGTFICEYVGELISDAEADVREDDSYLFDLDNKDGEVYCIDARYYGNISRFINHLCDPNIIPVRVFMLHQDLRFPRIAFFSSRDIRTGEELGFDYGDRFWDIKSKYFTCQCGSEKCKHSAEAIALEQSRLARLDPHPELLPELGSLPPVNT
# UniProt P01106: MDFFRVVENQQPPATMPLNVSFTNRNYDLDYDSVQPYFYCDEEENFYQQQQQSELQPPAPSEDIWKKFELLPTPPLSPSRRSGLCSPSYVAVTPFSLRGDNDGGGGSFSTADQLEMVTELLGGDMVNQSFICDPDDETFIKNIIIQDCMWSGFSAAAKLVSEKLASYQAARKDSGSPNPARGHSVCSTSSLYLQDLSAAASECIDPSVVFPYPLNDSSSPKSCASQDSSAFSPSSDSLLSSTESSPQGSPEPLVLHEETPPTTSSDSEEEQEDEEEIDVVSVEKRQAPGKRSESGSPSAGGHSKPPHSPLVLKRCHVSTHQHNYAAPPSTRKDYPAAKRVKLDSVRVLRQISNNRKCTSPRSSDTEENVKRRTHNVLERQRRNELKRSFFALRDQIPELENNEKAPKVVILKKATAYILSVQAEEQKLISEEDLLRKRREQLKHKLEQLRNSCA
# Results are given in words; binding and its absence hold for the method and conditions named. In cells and extracts the contact can be indirect. Some results given as binding are weak or reduced against the parent protein; the word gives no strength.
# Key:
# [1] = molecular target: G9a (human (endogenous in breast cancer cells)) (UniProt Q96KQ7); test: co-IP; immunoprecipitation with the c-MYC antibody from breast cancer cells, IgG control; cell line and conditions not told
# [2] = molecular target: c-MYC (human (endogenous in breast cancer cells)) (UniProt P01106); test: as above
binding [1],binding [2],Substance
no binding,no binding,FTH1 (from UniProt P02794 1-183)
,binds,G9a (from UniProt Q96KQ7 1-1210)
